Assay results published in PubChem BioAssay AID504444 (National Center for Advancing Translational Sciences (NCATS), 2011).
In all, about 360,000 compounds went through this assay and about 7,500 (2.1%) were called active. Inconclusive means that the source gave no clear call. Such entries were picked first, then a sample of the others. Calls come from the whole dose curve; as a rule, active = well fitted inhibition curve with a large enough effect; inconclusive = small, poorly fitted or top-dose-only effect, or effect the other way; inactive = flat fitted curve, though single readings scatter. Potencies of inconclusive entries are doubtful fits and often do not repeat.

Test: Nrf2 qHTS screen for inhibitors; note: nearly all actives have a fitted effect of over 60% in size
Conditions: A549 ARE-Fluc reporter, luciferase luminescence, 18-24 h; series mostly up to 46 µM
Summary of the method: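 Nrf2 activity is the BugLite luminescence, read 15 min after reagent at room temperature, following CellTiter-Fluor cytotoxicity readout (30 min, 37C). Compound titrations were applied for 18-24 h to 5000 A549 ARE_Fluc cells/well in 5% FBS OPTI-MEM.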
Potency is the fitted concentration of half-maximal effect.

SMILES | Potency
CCCCNc1c(-c2cccc(-c3cc(C(C)=O)cs3)c2)nc2ccc(C)cn12 | inconclusive: 20.6 µM [falling, single point]
Cc1cc(C(=O)CSc2nc3ccc(Cl)cc3[nH]2)c(C)n1CC1CCCO1 (centres undefined) | active: 13 µM
CCOC(=O)c1ccc(CN(Cc2ccc(C)cc2)S(=O)(=O)c2cccc([N+](=O)[O-])c2)cc1 | inconclusive: 29.1 µM [falling, single point]
CCN(CC)C(=O)Oc1ccc2c(=O)c(-c3ccc(OC)cc3)coc2c1 | inconclusive: 8.2 µM [falling, partial curve, poor fit]
COc1cc(NC(=O)c2ccccc2)c(OC)cc1NC(=O)CN1CCCCC1 | inconclusive: 35.5 µM [falling, partial curve, poor fit]
S=C(c1ccc(-c2ccccc2)o1)N1CCCCC1 | inconclusive: 8.2 µM [activator, partial curve]
COc1ccc(-c2cc(C)nc3c(-c4ccc(OC)c(OC)c4)c(C)nn23)cc1 | inconclusive: 29.1 µM [falling, single point]
CCOc1ccc(OCc2cccc(C(=O)N3CCCC3)c2)cc1 | inconclusive: 0.184 µM [activator, full curve]
CCN(CC)c1ccc(N=Cc2ccc([N+](=O)[O-])o2)cc1 | inconclusive: 25.9 µM [activator, single point]
Cn1cc(CCC(=O)N2CCCC(CCC(=O)NCc3ccc(F)c(F)c3)C2)cn1 (centres undefined) | inconclusive: 7.31 µM [activator, partial curve]
CCc1nc(N2CCN(C(=O)c3ccco3)CC2)c2oc3ccccc3c2n1 | inconclusive: 14.6 µM [falling, partial curve, poor fit]
Cc1ccc(Cl)c(OCC(=O)Nc2cccnc2)c1 | inconclusive: 10.3 µM [activator, partial curve]
COc1ccc(Cn2c(CCC(=O)NCc3ccco3)nc3cccnc32)cc1 | inactive
COCCNC(=O)C1Cc2c(ccc3ccccc23)O1 (centres undefined) | inconclusive: 1.3 µM [activator, full curve, poor fit]
CCn1c(-c2ccccc2)csc1=Nc1ccc(S(=O)(=O)O)cc1 | inactive
CC(=O)N1CCc2cc(S(=O)(=O)Nc3ccc(C)cc3C)ccc21 | inconclusive: 9.2 µM [falling, partial curve, poor fit]
CSc1ccc(-c2nc3ccc(C)cn3c2Nc2ccccc2C)cc1 | inactive
O=C(/C=C/c1ccco1)NCC(=O)N/N=C/c1ccc([N+](=O)[O-])cc1 | inactive
CC(=O)c1ccc(OCC(=O)Nc2cccc(S(=O)(=O)N3CCCC3)c2)cc1 | active: 16.4 µM
O=C(Nc1ccc(S(=O)(=O)N2CCCCC2)cc1)C1CC(=O)N(c2ccc(F)cc2)C1 (centres undefined) | inconclusive: 25.9 µM [falling, partial curve, poor fit]
CCCCc1cc(=O)oc2cc(C)c(CN3CCCC3)c(O)c12 | inconclusive: 23.1 µM [falling, partial curve, poor fit]
O=C(C1=C(O)C(=O)N(CCN2CCOCC2)C1c1cccc(F)c1)c1cc2ccccc2o1 (centres undefined) | inconclusive: 29.1 µM [falling, single point]

SMILES | Potency
Cc1ccc(C(=O)Nc2cccc(C(=O)N/N=C/c3ccccc3F)c2)cc1 | inconclusive: 20.6 µM [falling, single point]
CS(=O)(=O)N(CC(=O)N1CCN(Cc2ccc3c(c2)OCO3)CC1)Cc1ccc(Cl)cc1 | inconclusive: 20.6 µM [falling, single point]
Cc1ccc2c(CN(C)Cc3cccc(F)c3)cc(=O)oc2c1 | inconclusive: 16.4 µM [activator, partial curve]
Oc1ccc(CCC2CCCCN2Cc2nc(C3CC3)no2)cc1 (centres undefined) | inconclusive: 36.6 µM [falling, single point]
Cc1cccc(NC(=S)Nc2ccc(Cl)c(Cl)c2)c1 | inconclusive: 4.61 µM [falling, partial curve]
Cc1cc(C)c(S(=O)(=O)N2CCC(C(=O)NCc3ccc(Cl)cc3Cl)CC2)c(C)c1 | inconclusive: 16.4 µM [falling, partial curve, poor fit]
CC(CCc1ccccn1)C(=O)c1ccccc1 (centres undefined) | inactive
CCOC(=O)c1c(-c2ccc(C)o2)csc1NC(=O)CSc1nnc(C)s1 | inconclusive: 29.1 µM [falling, single point]
O=C1CC(NS(=O)(=O)c2ccc3ccccc3c2)CN1c1ccccc1 (centres undefined) | inconclusive: 23.1 µM [falling, partial curve, poor fit]
Clc1ccc(N2CCN(c3ncnc4c3oc3ccccc34)CC2)cc1 | inconclusive: 0.231 µM [falling, full curve, poor fit]
Fc1ccc(-n2cc(-c3ccccc3)[n+]3c2SCC3)cc1 | inconclusive: 10.3 µM [falling, partial curve, poor fit]
O=C(NNC(=S)NC1CCCCC1)c1ccc2c(c1)OCO2 | inconclusive: 6.51 µM [activator, single point]
Cc1ccc(C)c(SCC(=O)c2ccc[nH]2)c1 | inconclusive: 29.1 µM [activator, single point]
Cc1ccc(N2C(=O)C3ON(c4ccccc4)C(c4ccncc4)C3C2=O)c(C)c1 (centres undefined) | inconclusive: 4.11 µM [falling, partial curve, poor fit]
O=C(O)CCC(=O)N(Cc1ccccc1)Cc1ccccc1 | inconclusive: 0.0731 µM [falling, full curve, poor fit]
CC1CCCCC1NC(=O)CCC(=O)N1CCOc2ccc(Cl)cc21 (centres undefined) | inconclusive: 6.51 µM [falling, single point]
COc1ccc(OC)c(CCNc2ncnc3onc(-c4ccc(F)cc4)c23)c1 | inconclusive: 2.06 µM [falling, partial curve, poor fit]
O=C(O)c1ccccc1C(=O)Nc1ccc(Oc2cccc3ccccc23)cc1 | active: 20.6 µM
Cc1nc2ccc([N+](=O)[O-])cc2c(=O)n1Cc1cccc(Br)c1 | inconclusive: 29.1 µM [falling, partial curve, poor fit]
C/C(=N\Nc1cccc(C(=O)O)c1)c1ccc2c(c1)Nc1ccccc1S2 | inconclusive: 5.8 µM [activator, partial curve]
CS(=O)(=O)N(CC(=O)NCCSCc1ccccc1Cl)c1ccc(F)cc1 | inconclusive: 32.6 µM [falling, single point]
O=C(Nc1nc2ccc(F)cc2s1)C1=COCCO1 | inconclusive: 0.92 µM [activator, partial curve]

SMILES | Potency
Cc1ccc(S(=O)(=O)N2CCCCC2)cc1NC(=O)c1cc(F)c(F)c(F)c1F | inactive
Cc1cccc(C(=O)N[C@H](C(=O)Nc2ncc(C)s2)C(C)C)c1 | inconclusive: 2.06 µM [activator, partial curve, poor fit]
COc1ccc(-c2csc(Nc3ccc(S(N)(=O)=O)cc3)n2)cc1OC | inconclusive: 14.6 µM [falling, partial curve]
O=C(NCc1cn(-c2ccccc2)nc1-c1ccccc1)c1ccc([N+](=O)[O-])cc1 | inconclusive: 29.1 µM [falling, single point]
Cc1cc(C(=O)CSc2nnnn2-c2ccc(O)cc2)c(C)n1C | inconclusive: 25.9 µM [activator, single point]
CSc1nn(Cc2ccc(Cl)cc2)c(N(C(C)=O)C(C)=O)c1S(=O)(=O)c1ccccc1 | inconclusive: 29.1 µM [falling, single point]
COc1cnc(-c2ccccn2)nc1N(C)C | active: 8.2 µM
COc1ccccc1C1NC(=O)NC(C)=C1C(=O)OC1CCCC(C)C1 (centres undefined) | inconclusive: 18.4 µM [falling, partial curve]
O=S(=O)(c1ccccc1)N1CCN(Cc2ccccc2)c2ccccc21 | inactive
Cc1cc(C)c2cc(C(O)c3nnnn3Cc3ccccc3)c(=O)[nH]c2c1 (centres undefined) | inconclusive: 25.9 µM [activator, single point]
COc1ccc(OC)c(NC(=O)c2cc(-c3c(C)cc(C)cc3O)n[nH]2)c1 | inconclusive: 20.6 µM [falling, single point]
Cc1cccc(Cn2c(=O)n(CCc3ccccc3)c(=O)c3c(C)c(C)sc32)c1 | inactive
Cc1ccc(NC(=O)c2cc(C)nc3c2c(C)nn3-c2cccc(Cl)c2C)c(C)c1 | inactive
C#CCOc1ccc(-c2nnc(Nc3cccc(C)c3)c3ccccc23)cc1 | inconclusive: 46.1 µM [falling, partial curve, poor fit]
COc1ccc(CC2C(=O)NC(C)C(=O)N(C)C3Cc4ccc(cc4)Oc4cc(ccc4O)CC(C(=O)NC(C)C(=O)NC(C)C(=O)N2C)N(C)C3=O)cc1 (centres undefined) | active: 1.64 µM
CCOC(=O)CNC(=O)c1cn(C)c(=O)c2cc(OC)c(OC)cc12 | inconclusive: 25.9 µM [activator, single point]
COc1ccc(CNC(=O)CCc2c(C)nc3cc(-c4ccccc4OC)nn3c2C)cc1 | inactive
O=[N+]([O-])c1cccc(S(=O)(=O)Nc2cccc(-c3ccc(N4CCCC4)nn3)c2)c1 | inconclusive: 2.06 µM [activator, partial curve]
Cc1cc(C)n(-c2ccc(C(=O)Nc3cccnc3Cl)cc2)n1 | inconclusive: 8.2 µM [falling, partial curve, poor fit]
CC(SCc1ccccc1)C(=O)N/N=C/c1ccc(OCC(=O)NCc2ccco2)cc1 (centres undefined) | inconclusive: 29.1 µM [falling, single point]

Two entries from above, as a markdown table:

| SMILES | Potency |
| --- | --- |
| Cc1cc(C)c2cc(C(O)c3nnnn3Cc3ccccc3)c(=O)[nH]c2c1 (centres undefined) | inconclusive: 25.9 µM [activator, single point] |
| Cc1ccc(NC(=O)c2cc(C)nc3c2c(C)nn3-c2cccc(Cl)c2C)c(C)c1 | inactive |
